# Among all 580,000 compounds or so, about 6,100 (1.1%) were called active. The inconclusive results got no clear call from the source; some entries with a clear call stand among them for comparison. The call rests on the fitted dose curve; in most records, active means well fitted inhibition curve with a large enough effect; inconclusive means small, poorly fitted or top-dose-only effect, or another doubt; inactive means no such curve, though single readings can be large or run the other way. A potency beside an inconclusive call is a rough fit, not a confirmed value.
# The chains behind the UniProt entries cited, without tags or fusion partners. Where a name states a change or a piece, a line headed by the entry shows the natural chain unless it says otherwise.
# UniProt P18054: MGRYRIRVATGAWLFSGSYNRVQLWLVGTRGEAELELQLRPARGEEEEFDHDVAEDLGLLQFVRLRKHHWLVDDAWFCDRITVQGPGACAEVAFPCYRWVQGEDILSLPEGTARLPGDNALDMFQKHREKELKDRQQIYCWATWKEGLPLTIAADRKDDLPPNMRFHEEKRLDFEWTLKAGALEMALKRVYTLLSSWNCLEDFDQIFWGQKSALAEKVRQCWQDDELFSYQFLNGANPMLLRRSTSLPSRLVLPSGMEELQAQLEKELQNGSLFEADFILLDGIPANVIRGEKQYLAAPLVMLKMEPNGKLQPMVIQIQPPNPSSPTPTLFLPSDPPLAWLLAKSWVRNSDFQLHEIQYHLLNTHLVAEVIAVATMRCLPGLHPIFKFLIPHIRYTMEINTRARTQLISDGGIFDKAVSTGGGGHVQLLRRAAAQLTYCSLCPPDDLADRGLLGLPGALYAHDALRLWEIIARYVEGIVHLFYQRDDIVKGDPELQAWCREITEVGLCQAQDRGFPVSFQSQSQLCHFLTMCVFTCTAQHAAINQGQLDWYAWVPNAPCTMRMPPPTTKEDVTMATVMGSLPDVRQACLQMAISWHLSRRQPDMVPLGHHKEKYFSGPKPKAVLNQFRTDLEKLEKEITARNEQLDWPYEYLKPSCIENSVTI
# Molecular target: Polyunsaturated fatty acid lipoxygenase ALOX12 (Homo sapiens) (UniProt P18054)
# Assay: Primary qHTS assay for inhibitors of human arachidonate 12S-lipoxygenase (ALOX12): Round 2
# Conditions: purified 12hLO, xylenol orange hydroperoxide absorbance; activity change, negative = inhibition: at 108 µM (top of the series) unless noted
# Outline: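 Hydroperoxide product was detected by ferrous iron/xylenol orange as the 573 to 405 nm absorbance ratio. Arachidonic acid at 40 uM (final) was turned over for 30 min at room temperature by 150 nM human 12hLO, pH 7.0 Hepes buffer, after 15 min compound preincubation.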
# On the % scale 0 is the no-effect control and ±100 the full control effect; potency means the concentration at half of the fitted maximal effect.
SMILES,Potency,"activity change, negative = inhibition"
CCc1ccc2oc(=O)cc(-c3oc4ccccc4c3NC(=O)C3CC3)c2c1,active: 7.94 µM,–
COCCN(Cc1cccs1)S(=O)(=O)c1ccc(C(=O)O)cc1,"inconclusive: 35.5 µM [inhibitor, single point]",–
O=C(NNS(=O)(=O)c1ccc(Br)cc1)c1ccncc1,"inconclusive: 1.78 µM [inhibitor, full curve, poor fit]",–
COCOCCn1cc(CN2CCS(=O)(=O)N(Cc3ccc(-c4ccc(Cl)cc4)cc3)C(C)C2=O)nn1 (centres undefined),–,inactive: -3.45%
COc1ccc(C2(C)NC(=O)N(CC(=O)c3cc(C)n(C4CC4)c3C)C2=O)cc1OC (centres undefined),–,inactive: 20.8%
CCCCn1c(-c2csc(C(C)C)c2)n[nH]c1=S,"inconclusive: 31.6 µM [inhibitor, partial curve, poor fit]",–
CC(=O)Nc1ccc(NC(=O)c2cc(-c3cccnc3)nc3ccccc23)cc1,–,inactive: -24.7%
O=C(c1ccc(=O)[nH]n1)N1C[C@H]2OC(=O)N(CCCN3CCOCC3)[C@H]2C1,"inconclusive: 10 µM [inhibitor, full curve]",–
c1ccc2c(CNC3CCCCC3)cccc2c1,–,inactive: -74%
O=S(=O)(NCc1ccccn1)c1ccc(Br)s1,"inconclusive: 1.41 µM [inhibitor, full curve, poor fit]",–
Cc1cc(C23CC4CC(CC(C4)C2)C3)ccc1O,"inconclusive: 7.94 µM [inhibitor, partial curve, poor fit]",–
CCC(C(=O)N1CCN(C(=O)COc2ccccc2)CC1)n1cccn1 (centres undefined),–,inactive: -1.01%
CN1CCN(c2oc(-c3ccccc3)nc2C#N)CC1,"inconclusive: 50.1 µM [inhibitor, partial curve, poor fit]",–
COc1ccc(C(=O)N2CCOCC3(C2)CN(c2ccccc2)C3)cc1OC,"inconclusive: 126 µM [inhibitor, partial curve, poor fit]",–
CCN(CC)CCNC(=O)c1cc2c(-c3ccc(Cl)cc3)nn(C)c2s1,"inconclusive: 50.1 µM [inhibitor, partial curve, poor fit]",–
CCN(CC)S(=O)(=O)c1ccc(NC(=O)CN(c2ccccc2)S(C)(=O)=O)cc1,"inconclusive: 28.2 µM [inhibitor, partial curve, poor fit]",–
COCCCNc1nc(-c2ccccc2O)nc2ccccc12,"inconclusive: 50.1 µM [inhibitor, partial curve, poor fit]",–

SMILES,Potency,"activity change, negative = inhibition"
CCOC(=O)c1[nH]c(C)c(C(=O)NC2CCCCC2)c1C,–,inactive: 435%
O=C(O)CCc1ccc(-c2ccc(Cl)cc2)n1Cc1ccco1,active: 39.8 µM,–
CCC(C)NC(=O)CSc1ncnc2c1cnn2-c1ccccc1 (centres undefined),–,inactive: -23.4%
Cc1ccc2c(CN3CCN(c4ccc(Cl)cc4)CC3)cc(=O)oc2c1,"inconclusive: 0.447 µM [inhibitor, full curve, poor fit]",–
CCN(CC)CCCN(C(=O)c1ccc(F)cc1)c1nc(-c2ccc(OC)cc2)cs1,"inconclusive: 31.6 µM [inhibitor, partial curve, poor fit]",–
COc1ccc(-c2cc(C(F)(F)F)n3nc(C(=O)O)nc3n2)cc1,"inconclusive: 7.94 µM [inhibitor, partial curve, poor fit]",–
CN(C)CCn1c(=S)[nH]c2ccccc2c1=O,"inconclusive: 35.5 µM [inhibitor, partial curve, poor fit]",–
CCOC(=O)c1[nH]c(=S)n(Cc2ccccc2)c1C(=O)OCC,"inconclusive: 50.1 µM [inhibitor, partial curve, poor fit]",–
COc1ccccc1/C=C/C(=O)NNC(=O)c1cc(C)oc1C,–,inactive: 22.2%
CCn1c(SCC(=O)c2ccc[nH]2)nnc1-c1ccccc1,–,inactive: -21.1%
Cc1ccc2cc(C(=O)O)c(C)nc2c1,"inconclusive: 28.2 µM [inhibitor, partial curve, poor fit]",–
C/C=C/Cn1c(SCC(C)C)nc2c1c(=O)[nH]c(=O)n2C,"inconclusive: 0.501 µM [inhibitor, full curve, poor fit]",–
Cc1ccc(CNC(=O)C(=O)c2cn(CC(=O)N3CCCC3)c3ccccc23)cc1,"inconclusive: 44.7 µM [inhibitor, partial curve, poor fit]",–
CCOc1ccc(N2C(=O)CC(N3CCN(c4ccccc4OC)CC3)C2=O)cc1 (centres undefined),"inconclusive: 31.6 µM [inhibitor, partial curve, poor fit]",–
CCn1c(SCC(=O)NCCc2ccccc2)nc2sc3c(c2c1=O)CCN(C)C3,–,inactive: 115%
O=C(CN1CCCC1)Nc1nnc(-c2cccs2)s1,–,inactive: -1.63%

# Complete entries, quoted from the list.
# `CCOC(=O)c1[nH]c(=S)n(Cc2ccccc2)c1C(=O)OCC` is listed as Potency: inconclusive: 50.1 µM [inhibitor, partial curve, poor fit]
# `CCn1c(SCC(=O)NCCc2ccccc2)nc2sc3c(c2c1=O)CCN(C)C3` is listed as activity change, negative = inhibition: inactive: 115%
